# ± gives the standard deviation of the averaged measurements. Some of the results follow.
# Target: T1, CENPB (UniProt P07199)
# T1 sequence (whole entry): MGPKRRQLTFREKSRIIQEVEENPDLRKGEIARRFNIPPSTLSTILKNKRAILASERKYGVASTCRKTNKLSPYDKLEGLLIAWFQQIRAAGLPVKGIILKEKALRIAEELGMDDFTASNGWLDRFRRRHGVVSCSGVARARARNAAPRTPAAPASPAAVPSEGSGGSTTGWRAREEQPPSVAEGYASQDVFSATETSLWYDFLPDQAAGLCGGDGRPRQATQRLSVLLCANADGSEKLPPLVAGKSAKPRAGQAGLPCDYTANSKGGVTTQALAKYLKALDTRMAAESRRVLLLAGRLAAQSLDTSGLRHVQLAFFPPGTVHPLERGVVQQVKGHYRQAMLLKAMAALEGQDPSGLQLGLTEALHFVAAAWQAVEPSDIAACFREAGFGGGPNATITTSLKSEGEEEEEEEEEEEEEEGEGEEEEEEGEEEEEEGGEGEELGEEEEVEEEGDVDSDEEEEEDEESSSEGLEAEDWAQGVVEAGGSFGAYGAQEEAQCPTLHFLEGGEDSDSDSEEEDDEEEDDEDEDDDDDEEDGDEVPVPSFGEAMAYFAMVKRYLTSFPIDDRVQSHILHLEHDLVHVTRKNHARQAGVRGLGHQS
# Test: NP40-soluble protein abundance relative to vehicle (solubility fold change) (ratio); higher = more soluble protein in presence of GTP
# Procedure: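 Solubility proteome profiling in Jurkat crude lysate. Lysate was treated with Mg-GTP (0.1-10 mM) for 10 min at room temperature and 3 min at 37 °C, then solubilised with 0.8% NP40 and benzonase, followed by ultracentrifugation. Proteins were quantified by TMT10 LC-MS/MS; the value is the NP40-soluble abundance relative to the NP40-processed vehicle, from 3 independent experiments.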
smiles,measurement,setting,value
Nc1nc2c(ncn2[C@@H]2O[C@H](COP(=O)(O)OP(=O)(O)OP(=O)(O)O)[C@@H](O)[C@H]2O)c(=O)[nH]1 [guanosine triphosphate],NP40-soluble protein abundance,concentration: 0.1mM,1.11 ± 0.036
same,NP40-soluble protein abundance,concentration: 0.5mM,0.995 ± 0.021
same,NP40-soluble protein abundance,concentration: 1mM,1.05 ± 0.027
same,NP40-soluble protein abundance,concentration: 2mM,1.11 ± 0.089
same,NP40-soluble protein abundance,concentration: 4mM,0.979 ± 0.022
same,NP40-soluble protein abundance,concentration: 6mM,0.957 ± 0.074
same,NP40-soluble protein abundance,concentration: 8mM,1.04 ± 0.061
same,NP40-soluble protein abundance,concentration: 10mM,1.04 ± 0.05

# — the supplement of paper PMC6411743
